# Test results reported in PMC4871590.
# Results are given in words; binding and its absence hold for the method and conditions named. In cells and extracts the contact can be indirect. Binding can be weak; no strength is given. Sequences can lack the tags named with a protein.
# B1: GFP-B’β (Arabidopsis PP2A B’β subunit) (protein, UniProt O04376 1-499)
# chain: MFKKIMKGGHRKPSKSEANEPSSYGIGLPDNRSGPGSNVVVSHASRGALVNSSPSPVTATPPPPPLGSVEPLPLFRDVPVSERQTLFLRKLQNCCFLFDFTDTIKNARDKEIKRQTLLELVDFIQSGSSKISESCQEEMIKMISVNIFRSLPPASHENTGQEPADPEEEEPYLEPSWPHLQLVYELLLRYVVSTDTDTKVAKRYIDHSFVLKLLDLFDSEDPREREYLKTILHRIYGKFMVHRPFIRKAINNIFYRFIYETERHSGIGELLEILGSIINGFALPMKEEHKLFLIRVLIPLHKPKPIVVYHQQLSYCIVQFVEKDYKLADTVIRGLLKYWPVTNCSKENLFLGELEEVLEATQPVEFQRCMVPLFQQIGRCLTSSHFQVAERALFLWNNEHIVGLIAQNRSVILPIIYPTLEKNIQSHWNQAVHGLTTNIKKMFMEMDPELFEECQRQYEEKQAKSKEVEEQRQYTWKRLAEAAAERDGGGGEEDHMITS
# B2: GFP-B’ξ (Arabidopsis PP2A B’ξ subunit) (protein, UniProt Q9SV41 1-497)
# chain: MFNKIIKLGQKKFNKSDQHHQDNNNNNNNTSTNTVVRGSRTTTPAPSSVSNGESQTTAQSPSQTPNHPMFTTTPILEVLPLLKDVSSSDRPLLFMKKAHMCSCHCDFSDTLIMPREKEIKRQTLLELVDFLHSSSGKVNETMQSELIRMVSANIFRCLPPAYHENTGAPPEGNDPEEEEPYLEPWWPHLQLVYELLLRYVVSSEIEPKTAKKFINHTFVSRLLDLFDSEDPREREYLKTVLHRIYGKFIFHRPFIRCSIYNIFYKFLYETERCIGIGELLEILGSVINGFTVPMREEHRLYLVKAILPLHKSKGISIYHQQLAYCVTQFVEKDYKLADTVIRGLLKFWPLTNCQKEVLFLGELEEVLDATEPSEFQQCVVPLFTQIGKCLNSAHFQVAERALFLWNNEHIVGLIAQNKDVIFPIIFEALERNMKGHWNQAVHGLSENVRRMFLEMDTELFEECEKQYLENEAKACELLEQRELTWKRLEEAASLAAN
# B3: GFP-B’η (Arabidopsis PP2A B’η subunit) (protein, UniProt Q9LU89 1-510)
# chain: MWKQILSKLPNKKSSKHEHRGREHGGHSSSSSHTSGASTSKSTDNGAAKSHAKNASPAGKSAASDSGFKDGNLKSSGNNNNNNNNGVFTPYEALPSFKDVPNTEKQNLFIKKLNLCRVVFDFTDPTKNIKEKDIKRQTLLELVDYVNSPNGKFSEVGIQEVVRMVSANIFRTLNPQPRENKVIDALDLEEEEPSMDLAWPHLQLVYELFLRFVASPETDTKLAKRYIDQSFVLRLLDLFDSEDPRERDCLKTILHRIYGKFMVHRPFIRKSINNIFYRFVFETEKHNGIAEFLEILGSIINGFALPLKDEHKVFLVRVLIPLHKPKCLQMYHQQLSYCITQFVEKDCKLADTVIRGLLKYWPVTNSSKEVMFLNELEEVLEATQPPEFQRCMVPLFRQIARCLNSLHFQVAERALFLWNNNHIENLIMQNRKVILPIIFPALERNAQKHWNQAVHSLTLNVRKIFHDLDPELFKECLAKFKEDESKAAETEAKREATWKRLEELGVRKAS
# Biological target: AvrE1-C’-HA (aa 889–1795) (Pseudomonas syringae pv. tomato DC3000)
# Experiment: co-IP; HA-IP: AvrE1-HA fragments pulled down with anti-HA agarose from lysates of N. benthamiana leaves co-expressing GFP fusions (48 h); co-precipitated GFP fusions detected with anti-GFP; lysis buffer 50 mM Tris-HCl pH 7.5, 150 mM NaCl, 1% Nonidet P40, 0.5% sodium deoxycholate, 5 mM DTT; 4°C
row,Binder,binding
1,B1,binds
2,B2,binds
3,B3,no binding

# Biological target: AvrE1-N’-HA (aa 1–898) (Pseudomonas syringae pv. tomato DC3000)
# Experiment: as above
row,Binder,binding
1,B1,binds
2,B2,binds
3,B3,binds
